Values are the deposited “Percent Effect”, in %. The record does not define 0% and 100%; most values in the screen are far below 50% and negative numbers occur (in some assays of this library far below -100). The compounds are a random part of those screened. Two or more numbers in one place are separate tests of the same structure; such repeats can differ widely.

Mtb cholesterol medium: 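Growth of Mycobacterium tuberculosis over 4 days (cholesterol / DPPC medium with tyloxapol); the read-out is not stated. Compounds at 50 µM. Direction is inferred from retests: higher values go with more growth inhibition. About 69,000 compounds were tested under these conditions; 0.54% (about 370) showed 50% or more at least once.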
Mtb glucose medium: 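Phenotypic screen: M. tuberculosis growth, glucose 7H9 medium, 3 days; the read-out is not stated. Compounds at 50 µM. Higher reads as more growth inhibition (inferred: compounds with an IC50 in retests scored well above the rest). Size under these conditions: about 69,000 compounds, about 760 of them at 50% or above in at least one test.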

{"compound": "c1cc(CN2CCCC2)ccc1CNc1cncc2nnnn12", "Mtb cholesterol medium": -31.26, "Mtb glucose medium": "-31.88 and -12.65"}
{"compound": "CCc1ncnc2c1CCN(CCOC)CC2.O=C(O)C(F)(F)F", "Mtb cholesterol medium": 8.394, "Mtb glucose medium": 24}
{"compound": "Cc1ccnc(C2CCN(C(=O)CCn3ncc4ccccc43)C2)n1", "stereo": "stereo not shown", "Mtb cholesterol medium": 9.845, "Mtb glucose medium": -4.333}
{"compound": "CCOc1ccc(Cl)c(C(=O)NC(Cc2ccccc2)C(N)=O)n1", "stereo": "stereo not shown", "Mtb cholesterol medium": -9.173, "Mtb glucose medium": "-8.493 and 3.281"}
{"compound": "O=C(O)C(F)(F)F.O=C(O)C(F)(F)F.O=C(O)C(F)(F)F.c1cnc(NCc2noc3c2CN(CCN2CCCC2)CC3)nc1", "Mtb cholesterol medium": 11.26, "Mtb glucose medium": 4.55}
{"compound": "COc1ccccc1-c1nccnc1C1CCN(C(C)=O)CC1", "Mtb cholesterol medium": 13.91, "Mtb glucose medium": -3.307}
{"compound": "CN(Cc1n[nH]c2c1CCCC2)C(=O)c1cccc(CCC(C)(C)O)c1", "Mtb cholesterol medium": "0.8765 and -24.52", "Mtb glucose medium": -7.457}
{"compound": "COCC1CN(Cc2ccc(C)o2)Cc2cn(C)nc21.O=C(O)C(F)(F)F.O=C(O)C(F)(F)F", "stereo": "stereo not shown", "Mtb cholesterol medium": -15.05, "Mtb glucose medium": -14.84}
{"compound": "CCN(CC)c1ccc(NS(=O)(=O)c2cnn(CC)c2)cn1", "Mtb cholesterol medium": "11.23 and -3.549", "Mtb glucose medium": 18.41}
{"compound": "O=C(O)C(F)(F)F.[H][C@]12CCNCC[C@@]1([H])S(=O)(=O)N(CCc1cccc(OC)c1)C2", "Mtb cholesterol medium": 16.99, "Mtb glucose medium": "22.87 and -0.4076"}
{"compound": "Cc1ccc(CN(C)C(=O)c2cnsn2)cc1", "Mtb cholesterol medium": 46.66, "Mtb glucose medium": 54.74}
{"compound": "COc1cccc(F)c1-c1c[nH]c(C)n1", "Mtb cholesterol medium": -1.06, "Mtb glucose medium": -38.46}
{"compound": "Cc1cccc(NC(=O)CCNCc2c(C)nn(C)c2N(C)C)n1", "Mtb cholesterol medium": 4.448, "Mtb glucose medium": "-23.69 and 16.35"}
{"compound": "[H][C@@]12CCCO[C@]1([H])[C@@H](NC(=O)c1cnn(C)c1)CN2S(C)(=O)=O", "Mtb cholesterol medium": -14.93, "Mtb glucose medium": "-4.753 and 1.788"}
{"compound": "CCc1c(C)sc2ncnc(N3CC[C@@H](N4CCC(O)CC4)[C@H](O)C3)c12", "Mtb cholesterol medium": -0.3922, "Mtb glucose medium": 13.15}
{"compound": "CN(C)S(=O)(=O)c1ccc(F)c(NC(=O)COCC2CC2)c1", "Mtb cholesterol medium": 7.624, "Mtb glucose medium": "48.72 and 47.33"}
{"compound": "COc1cccc(Cn2c(C3CCNCC3)cc3cccnc32)c1.Cl", "Mtb cholesterol medium": "11.12 and 29.93", "Mtb glucose medium": 41.37}
{"compound": "CC(C)c1ncncc1C(=O)N1CCCN(Cc2cccs2)CC1", "Mtb cholesterol medium": 5.758, "Mtb glucose medium": 24.29}
{"compound": "Cc1ccc(S(=O)(=O)N(CCO)C2CC2)cc1N(C)C", "Mtb cholesterol medium": -14.17, "Mtb glucose medium": -43.31}
{"compound": "O=S(=O)(NCC1(c2cccs2)CCOCC1)c1cccnc1", "Mtb cholesterol medium": -4.74, "Mtb glucose medium": -11.95}
{"compound": "CN(Cc1cnn(C)c1)S(=O)(=O)N1CCCCC1", "Mtb cholesterol medium": "-2.224 and -1.664", "Mtb glucose medium": -8.763}
{"compound": "O=C(CNCC1CCCN1c1cccnn1)NCCc1cccs1", "stereo": "stereo not shown", "Mtb cholesterol medium": "-0.1469 and 9.385", "Mtb glucose medium": 18.48}
{"compound": "Cn1ncnc1NCc1ccccc1Cl", "Mtb cholesterol medium": 7.207, "Mtb glucose medium": 14.21}
{"compound": "COc1nccc(N2CCN(Cc3ccc(C)cc3)C(=O)C2)c1C#N", "Mtb cholesterol medium": -13.35, "Mtb glucose medium": -37.61}
{"compound": "CCOc1ccc(C(=O)n2cccn2)cc1", "Mtb cholesterol medium": 4.216, "Mtb glucose medium": "4.741 and -8.787"}
{"compound": "CN1CCN(c2ccccc2NC(=O)c2ccco2)CC1", "Mtb cholesterol medium": 13.13, "Mtb glucose medium": 39.54}
{"compound": "Cc1cc(C)cc(N(C)S(=O)(=O)c2cc(C(=O)O)cs2)c1", "Mtb cholesterol medium": 4.438, "Mtb glucose medium": 26.49}
{"compound": "O=C(NCCc1noc(C2CCCO2)n1)c1cn2ccsc2n1", "stereo": "stereo not shown", "Mtb cholesterol medium": 5.155, "Mtb glucose medium": -1.727}
{"compound": "O=C1NC2(CCN(C(=O)Cc3ccsc3)CC2)CC1c1ccccc1", "stereo": "stereo not shown", "Mtb cholesterol medium": "3.12 and -16.22", "Mtb glucose medium": "-4.407 and 0.4142"}
{"compound": "CCc1nnc2n1CCN(C(C(=O)N(CC)CC)c1ccccc1)C2", "stereo": "stereo not shown", "Mtb cholesterol medium": 13.97, "Mtb glucose medium": "19.35 and 0.5731"}
{"compound": "Cc1nnc(N2CCc3cncnc3C2)c(C#N)c1C", "Mtb cholesterol medium": -4.44, "Mtb glucose medium": 32.92}
{"compound": "CCCSc1ccccc1NC(=O)N1CCC(N2CCSCC2)CC1", "Mtb cholesterol medium": -25.56, "Mtb glucose medium": -9.362}
{"compound": "CS(=O)(=O)N1CCC(c2nnc(CN3CCCC3)n2C2CC2)CC1", "Mtb cholesterol medium": -17.28, "Mtb glucose medium": -31.31}
{"compound": "OCCO[C@H]1C[C@@H](O)C12CCN(Cc1nc(C(F)(F)F)no1)CC2", "Mtb cholesterol medium": -6.629, "Mtb glucose medium": "-18.01 and -0.9984"}

Once more, the final 4:

{"compound": "Cc1nnc(N2CCc3cncnc3C2)c(C#N)c1C", "Mtb cholesterol medium": -4.44, "Mtb glucose medium": 32.92}
{"compound": "CCCSc1ccccc1NC(=O)N1CCC(N2CCSCC2)CC1", "Mtb cholesterol medium": -25.56, "Mtb glucose medium": -9.362}
{"compound": "CS(=O)(=O)N1CCC(c2nnc(CN3CCCC3)n2C2CC2)CC1", "Mtb cholesterol medium": -17.28, "Mtb glucose medium": -31.31}
{"compound": "OCCO[C@H]1C[C@@H](O)C12CCN(Cc1nc(C(F)(F)F)no1)CC2", "Mtb cholesterol medium": -6.629, "Mtb glucose medium": "-18.01 and -0.9984"}

Data taken from ChEMBL document CHEMBL3988442, “University of Dundee, Small-Polar-MMV Screening Library” (2021).